Measurements reported in patent publication US20150376252A1.
No constants are given. Whether binding was seen depends on the method and setting. Some results given as binding are weak or reduced against the parent protein; the word gives no strength.

Amino acid sequences for entries named in this document (tags omitted). Residues count along the entry.
UniProt O75581, residues 20-631: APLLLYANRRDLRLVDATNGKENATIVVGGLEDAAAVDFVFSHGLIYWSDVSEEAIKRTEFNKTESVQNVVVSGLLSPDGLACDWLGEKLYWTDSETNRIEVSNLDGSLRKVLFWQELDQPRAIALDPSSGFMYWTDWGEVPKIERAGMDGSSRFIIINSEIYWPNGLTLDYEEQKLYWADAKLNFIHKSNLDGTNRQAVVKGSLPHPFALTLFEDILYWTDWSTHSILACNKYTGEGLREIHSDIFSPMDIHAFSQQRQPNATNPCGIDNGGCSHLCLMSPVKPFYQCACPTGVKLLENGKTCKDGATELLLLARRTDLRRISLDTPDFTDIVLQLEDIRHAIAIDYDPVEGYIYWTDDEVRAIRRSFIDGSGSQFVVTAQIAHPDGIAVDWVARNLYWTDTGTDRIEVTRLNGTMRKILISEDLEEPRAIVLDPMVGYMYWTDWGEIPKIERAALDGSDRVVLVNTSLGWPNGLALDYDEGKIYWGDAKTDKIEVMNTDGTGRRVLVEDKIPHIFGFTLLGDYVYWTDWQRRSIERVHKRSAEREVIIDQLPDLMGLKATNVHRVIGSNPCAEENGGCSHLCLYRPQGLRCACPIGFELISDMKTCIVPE

Key:
[1] = target: His8-tagged Lrp6 BP1-2 (Lrp6 extracellular beta-propeller domains 1 and 2) (UniProt O75581); experiment: AlphaScreen (FIG. 13A)
[2] = target: His8-tagged Lrp6 BP1-2 (Lrp6 extracellular beta-propeller domains 1 and 2) (UniProt O75581); experiment: AlphaScreen luminescence proximity assay

GGGGGGCNSIKFCG (N-terminal biotin; disulfide bond between the two cysteines (cyclic)) [biotinylated DKK1 peptide (cyclic, biotin-…)]
binding [1]: binds
binding [2]: binds
